Assay results reported in article PMC7819943, “Rice protein-binding microarrays: a tool to detect cis-acting elements near promoter regions in rice”.
This is one part of the list.

By UniProt entry, the sequences of proteins in these tests, tags left out.
UniProt Q0JBA9, entry or part of it: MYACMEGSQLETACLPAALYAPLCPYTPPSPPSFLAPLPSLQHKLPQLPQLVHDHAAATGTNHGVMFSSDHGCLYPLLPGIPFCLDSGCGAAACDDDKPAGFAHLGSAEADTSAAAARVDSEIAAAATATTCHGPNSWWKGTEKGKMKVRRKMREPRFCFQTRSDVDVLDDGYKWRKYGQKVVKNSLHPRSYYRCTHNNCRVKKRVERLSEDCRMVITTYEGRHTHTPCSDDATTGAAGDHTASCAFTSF

Each sequence was assayed against OsWRKY34 (Oryza sativa, UniProt Q0JBA9 1-250) (assay: protein-binding microarray (RPBM); PBS, 2% BSA, 51.3 ng/ul salmon testes DNA, 50 uM zinc acetate, 200 nM TF, 25 C, 1 h; high values mean tight binding). Details: protein: recombinant; tags: N-terminal polyhistidine and DsRed monomer fusion (pET32a); label: CyDye5-dUTP incorporated in the synthesized complementary strand; 3' TTTTT single-stranded linker to array surface; dsDNA, one strand shown.
Method in brief: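 Per-feature fluorescence intensity (arbitrary units), read on an Axon 4000B scanner, is the binding signal. Transcription factors carrying an N-terminal polyhistidine tag and DsRed fusion were expressed in E. coli BL21-CodonPlus and purified on Ni–NTA. A custom Agilent array, made double-stranded by primer extension with Cy5-dUTP and blocked with 2% BSA, was incubated with 200 nM protein in PBS, 2% BSA, salmon testes DNA and 50 µM zinc acetate at 25 °C for 1 h and then washed.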

Row | Sequence | binding signal
1 | TTTAACCATGTCATTTTATTTCTCACACTTGCTTTACTTTCGGAGTCACCTAGTGCAG | 8860 fluorescence intensity (a.u.)
2 | TCTCTTTCTAGCTATTGACTGGTTTTTATATTAACTAGCACGGAGTCACCTAGTGCAG | 9280 fluorescence intensity (a.u.)
3 | GAATGTGAGTTGGCATTTACTTTCTCCGTCCCAAAAATAACGGAGTCACCTAGTGCAG | 8080 fluorescence intensity (a.u.)
4 | TAATTTTTTCACCTAGCTCTACTTATCATCCAATCATAATCGGAGTCACCTAGTGCAG | 9440 fluorescence intensity (a.u.)
5 | AAATACAACTTTGACTTTTTGTTTCTTTAAAAATATTTATCGGAGTCACCTAGTGCAG | 9920 fluorescence intensity (a.u.)
6 | GTGTAAGTTCATTCCAGATCTATTCATTTTGCGATTCACCCGGAGTCACCTAGTGCAG | 8430 fluorescence intensity (a.u.)
7 | TCACCGCTTCCCTTTCCTGACCCCACCAACTCGCCATCCTCGGAGTCACCTAGTGCAG | 8180 fluorescence intensity (a.u.)
8 | GACTTAATTTTCTGGATACCATGTTGTCGCGACTTTCGTACGGAGTCACCTAGTGCAG | 9910 fluorescence intensity (a.u.)
9 | ATCTGGGTTCGGATGCCTATGTTGTACAGTGCCTTACCTTCGGAGTCACCTAGTGCAG | 8260 fluorescence intensity (a.u.)
10 | TGGTTGTGTTCTTGTTGGCTTATACCTTTTTTATGTTTTGCGGAGTCACCTAGTGCAG | 9260 fluorescence intensity (a.u.)
11 | ATATCTTCTACACTGCACTTTATGAATATCTCATGTCCTGCGGAGTCACCTAGTGCAG | 8630 fluorescence intensity (a.u.)
12 | CAGCTATCCAACCAGTCCTGCAAGTTTTTTTTTTATACAACGGAGTCACCTAGTGCAG | 8340 fluorescence intensity (a.u.)
13 | TCCTACATTTTTTTGTTTTCTTTTCCGGCCCTGCTAAATTCGGAGTCACCTAGTGCAG | 8680 fluorescence intensity (a.u.)
14 | TGCGAAGGGTTCGTTTCGTTTCCACACCACCATTGGTCAACGGAGTCACCTAGTGCAG | 9310 fluorescence intensity (a.u.)
15 | ATTTTAGAGTAGTTTATTTTCCATCATTCGTATTTAAATCCGGAGTCACCTAGTGCAG | 9030 fluorescence intensity (a.u.)
16 | GTTGGTTTTATATATTAGTTGTGGTAGCCTCCATTTTGAACGGAGTCACCTAGTGCAG | 8120 fluorescence intensity (a.u.)
17 | GGTATCCTATATTCAGTCCAAATATCATCGCCGTGTAGATCGGAGTCACCTAGTGCAG | 8430 fluorescence intensity (a.u.)
18 | ACAACGGCGACCACGACACGAAATTTCCACGCGCGCTTGCCGGAGTCACCTAGTGCAG | 8930 fluorescence intensity (a.u.)
19 | ACAATCTCGACATCTAGCAGCATCCAGTCTAAACACTAAACGGAGTCACCTAGTGCAG | 8080 fluorescence intensity (a.u.)
20 | CGCACGCGTGCACGGCTCTCTGCGACCCGCGAACCACCAGCGGAGTCACCTAGTGCAG | 8520 fluorescence intensity (a.u.)
21 | GCAATCTGGGCCGCGCCCATTCCCCTACGGCCCACGAATCCGGAGTCACCTAGTGCAG | 8170 fluorescence intensity (a.u.)

Reprinted: nos. 10–16
Row | Sequence | binding signal
10 | TGGTTGTGTTCTTGTTGGCTTATACCTTTTTTATGTTTTGCGGAGTCACCTAGTGCAG | 9260 fluorescence intensity (a.u.)
11 | ATATCTTCTACACTGCACTTTATGAATATCTCATGTCCTGCGGAGTCACCTAGTGCAG | 8630 fluorescence intensity (a.u.)
12 | CAGCTATCCAACCAGTCCTGCAAGTTTTTTTTTTATACAACGGAGTCACCTAGTGCAG | 8340 fluorescence intensity (a.u.)
13 | TCCTACATTTTTTTGTTTTCTTTTCCGGCCCTGCTAAATTCGGAGTCACCTAGTGCAG | 8680 fluorescence intensity (a.u.)
14 | TGCGAAGGGTTCGTTTCGTTTCCACACCACCATTGGTCAACGGAGTCACCTAGTGCAG | 9310 fluorescence intensity (a.u.)
15 | ATTTTAGAGTAGTTTATTTTCCATCATTCGTATTTAAATCCGGAGTCACCTAGTGCAG | 9030 fluorescence intensity (a.u.)
16 | GTTGGTTTTATATATTAGTTGTGGTAGCCTCCATTTTGAACGGAGTCACCTAGTGCAG | 8120 fluorescence intensity (a.u.)

Remaining list, next part

Row | Sequence | binding signal
22 | CTTATTTAGTTGGGGAAAATTTTTGGGTTTGTTTGTCACACGGAGTCACCTAGTGCAG | 11600 fluorescence intensity (a.u.)
23 | ATTATATCATTTTCACAATATTTGAACCAAAACTCATCAACGGAGTCACCTAGTGCAG | 8830 fluorescence intensity (a.u.)
24 | CCGACCACGACCAGAGCTCGCCTCGCCCTCGCCGATTACCCGGAGTCACCTAGTGCAG | 11300 fluorescence intensity (a.u.)
25 | AGTGTTTGACTTTCTTACTGACCTTACCTGATCTTGAAGCCGGAGTCACCTAGTGCAG | 16200 fluorescence intensity (a.u.)
26 | GTGGTGTGTGAATATAAATTTTCCCTTCCGCTCACAGAAGCGGAGTCACCTAGTGCAG | 8240 fluorescence intensity (a.u.)
27 | CACCGCCACCACCCGCACCGCCTCCGCCGCGCGCCCCGACCGGAGTCACCTAGTGCAG | 9130 fluorescence intensity (a.u.)
28 | GGGTCTCACCTCGTCACCGGAGGTTTTTCCAGTGTACCATCGGAGTCACCTAGTGCAG | 8192 fluorescence intensity (a.u.)
29 | TCCTCGTCGAGATCTCTCTATCTCTCTCTCTGCTCTGCTCCGGAGTCACCTAGTGCAG | 9690 fluorescence intensity (a.u.)
30 | ACCGTTGATTTAGAAAGGGGTTGAGGGGAGGGTAGTAGTACGGAGTCACCTAGTGCAG | 11600 fluorescence intensity (a.u.)
31 | TTCTTTTTCGTTTTCTTCTCATTCTTCTTTTTTTTCCTTTCGGAGTCACCTAGTGCAG | 14300 fluorescence intensity (a.u.)
32 | TCTTTTTATTTTTTTCTTCCATTGTTCTTGTCCTTCTAATCGGAGTCACCTAGTGCAG | 8230 fluorescence intensity (a.u.)
33 | CCTTTTCCTGGTGGAATTTTCTTCTCATACTATTTTCTTGCGGAGTCACCTAGTGCAG | 11300 fluorescence intensity (a.u.)
34 | GACTCTTGCGATTCCCTCTGTTGAACTTGTTCGTTCTCCTCGGAGTCACCTAGTGCAG | 10600 fluorescence intensity (a.u.)
35 | AATTTATTCTTTTTCCCTTTTTTTTCCTCTGTTTTTCTCACGGAGTCACCTAGTGCAG | 8730 fluorescence intensity (a.u.)
36 | CCCACACCTCTGTTGCTACCTTTTCGTCGTCGTCGTCGCCCGGAGTCACCTAGTGCAG | 9700 fluorescence intensity (a.u.)
37 | CCTATGCACGCGCGCTCCCGCGCCTCCGTGCCGTCCCCACCGGAGTCACCTAGTGCAG | 8390 fluorescence intensity (a.u.)
38 | ATTGCAATATCTGCAATCCCGTGTACCTTTTGCTGATTTTCGGAGTCACCTAGTGCAG | 11300 fluorescence intensity (a.u.)
39 | AGACCCCAACTCCTAGTAGTTGTATTTGTCGGCTTGCATCCGGAGTCACCTAGTGCAG | 8590 fluorescence intensity (a.u.)
40 | ATTCCTGTTCTACTCTGAGCCAACCGCCGCAGCGCATGCGCGGAGTCACCTAGTGCAG | 8540 fluorescence intensity (a.u.)
41 | GTTTGGGGTCGAGATATCCGGTTTTGTAATCCAGAGAAACCGGAGTCACCTAGTGCAG | 8840 fluorescence intensity (a.u.)
42 | ACCACCCTCCTTGTTACAGCTGTGCCGCCTCTTGCTTCCTCGGAGTCACCTAGTGCAG | 11600 fluorescence intensity (a.u.)
